Source: PubChem BioAssay AID192 (DTP/NCI, 2004)
The list shows only some results of the screen, not a fair sample: it is rich in T/C values a quarter to a half above the control, in often repeated tests (any T/C) and in doses without a T/C. Other doses and runs of a compound stand elsewhere. T/C gives the treated animals as a percentage of the vehicle group. Some entries give survivors of the animals treated and no T/C: the source files T/C as zero there, which appears to mark a toxic dose or a test without result, not a measured value. Some doses without a T/C left all or most animals alive at the check, yet need not have been tolerated: survival well below the control is almost never listed, so the zero probably covers shortened survival too. Counts of survivors are from the toxicity check (mostly the fifth day) where no day follows; animals may have died later. Schedules are NCI's codes, taken here to give the interval after Q, in days (D) or hours (H), and the number of doses after X. Some doses were run more than once; the values are given in rising order. Where survival is the endpoint, this PubChem deposit counts one and a half times the control or more as active, and values a quarter to a half above the control carry no call in these data; other NCI protocols may use other cut-offs.

Tested on: BDF1 mice, B16 melanoma ip, median survival T/C
Test: NCI In Vivo Anticancer Drug Screen. Data for tumor model B16 Melanoma (intraperitoneal) in B6D2F1 (BDF1) mice
Conditions: T/C endpoint: median survival time, higher T/C = longer survival
In short: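 Antitumor activity is assessed in mice bearing a transplanted tumor, with survival or tumor size compared against vehicle-dosed controls and expressed as T/C.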

[1] = dose: 100.0 mg/kg/injection, schedule: Q01DX009 (ip), vehicle: saline with Tween-80
[2] = dose: 400.0 mg/kg/injection, schedule: Q01DX009 (ip), vehicle: saline with Tween-80
[3] = dose: 4.0 mg/kg/injection, schedule: Q01DX009 (ip), vehicle: saline with Tween-80
[4] = dose: 8.0 mg/kg/injection, schedule: Q01DX009 (ip), vehicle: saline with Tween-80
[5] = dose: 200.0 mg/kg/injection, schedule: Q01DX009 (ip), vehicle: saline
[6] = dose: 200.0 mg/kg/injection, schedule: Q01DX009 (ip), vehicle: saline with Tween-80

OC1CCCC2CCCNC12 (stereo unspecified)
survivor count [1]: 6 of 10

O=C(Nc1cc(C(F)(F)F)ccc1Cl)c1ccc(Cl)cc1Cl
survivor count [2]: 10 of 10

CCCCCCCCCCCC[N+](C)(C)Cc1ccccc1
survivor count (dose: 1.0 mg/kg/injection, schedule: Q01DX009 (ip), vehicle: saline with Tween-80): 10 of 10 | survivor count (dose: 1.0 mg/kg/injection, schedule: Q01DX009 (ip), vehicle: saline): 10 of 10 | survivor count (dose: 1.0 mg/kg/injection, schedule: Q04DX003 (ip), vehicle: saline): 9 of 10 | survivor count (dose: 2.0 mg/kg/injection, schedule: Q01DX009 (ip), vehicle: saline): 7 of 10 | survivor count (dose: 2.0 mg/kg/injection, schedule: Q04DX003 (ip), vehicle: saline): 10 of 10 | survivor count [3]: 6 of 10 | survivor count (dose: 4.0 mg/kg/injection, schedule: Q04DX003 (ip), vehicle: saline): 10 of 10 | survivor count [4]: 4 of 10 | survivor count (dose: 8.0 mg/kg/injection, schedule: Q01DX009 (ip), vehicle: saline): 1 of 10 | survivor count (dose: 8.0 mg/kg/injection, schedule: Q04DX003 (ip), vehicle: saline with Tween-80): 8 of 10 | survivor count (dose: 8.0 mg/kg/injection, schedule: Q04DX003 (ip), vehicle: saline): 7 of 10 and 10 of 10 | survivor count (dose: 16.0 mg/kg/injection, schedule: Q04DX003 (ip), vehicle: saline with Tween-80): 2 of 10

Cc1c2cccc(Sc3ccccc3)c2c2c3c(cccc13)[S+](c1ccccc1)C2 (stereo unspecified)
survivor count (dose: 12.5 mg/kg/injection, schedule: Q01DX009 (ip), vehicle: saline with Tween-80): 9 of 10 | survivor count (dose: 25.0 mg/kg/injection, schedule: Q01DX009 (ip), vehicle: saline with Tween-80): 1 of 10 | survivor count (dose: 50.0 mg/kg/injection, schedule: Q01DX009 (ip), vehicle: saline with Tween-80): 2 of 10 | survivor count [1]: 0 of 10

C=C1CC2(OC1=O)C(=O)N(C)c1ccc(I)cc12 (stereo unspecified)
survivor count (dose: 50.0 mg/kg/injection, schedule: Q01DX009 (ip), vehicle: saline): 7 of 10 | survivor count (dose: 100.0 mg/kg/injection, schedule: Q01DX009 (ip), vehicle: saline): 6 of 10 and 7 of 10 | survivor count [5]: 0 of 10 and 5 of 10

CC1=C2CC(C)(C)/C=C\C(=O)/C(C)=C\C3=C[C@H](C)C[C@]3(O2)C1=O
survivor count [3]: 6 of 6 | survivor count [4]: 5 of 6 | survivor count (dose: 24.0 mg/kg/injection, schedule: Q01DX009 (ip), vehicle: saline): 10 of 10 | survivor count (dose: 48.0 mg/kg/injection, schedule: Q01DX009 (ip), vehicle: saline): 9 of 10

O=S1(=O)CC2(N3CCOCC3)CCCCC21 (stereo unspecified)
survivor count [2]: 5 of 6

Nc1nc2c(ncn2C2OC(CO)C(O)C2N)c(=O)[nH]1 (stereo unspecified)
T/C [5]: 130 % of control

NC(=O)CC(NC(=O)CCl)C(=O)O (stereo unspecified)
survivor count [6]: 10 of 10

CC(C)C[NH-].CC(C)C[NH-].O.O.[Cl][Pt+2][Cl]
T/C (dose: 20.0 mg/kg/injection, schedule: Q01DX009 (ip), vehicle: other): 146 % of control

O=C1c2ccccc2C(=O)c2c3c(cc(NCCNCCO)c21)N(CCO)CCN3
T/C (dose: 25.0 mg/kg/injection, schedule: Q01DX009 (ip), vehicle: DMSO): 126 % of control | T/C (dose: 50.0 mg/kg/injection, schedule: Q01DX009 (ip), vehicle: DMSO): 144 % of control | survivor count (dose: 400.0 mg/kg/injection, schedule: Q01DX009 (ip), vehicle: DMSO): 8 of 10

C1=NC(c2ccccn2)=NNC(c2ccccn2)=C1c1ccccc1
survivor count (dose: 200.0 mg/kg/injection, schedule: Q01DX009 (ip), vehicle: Klucel (hydroxypropylcellulose) (HPC)): 10 of 10

COc1cccc2c1C(=O)c1c(O)c3c(c(O)c1C2=O)C[C@@](O)(C(C)O)C[C@@H]3OC1CC(N2CCOCC2)C(O)C(C)O1 (stereo partly specified)
survivor count (dose: 500.0 micrograms/kg/injection, schedule: Q01DX001 (ip), vehicle: water): 2 of 10

Cc1cc(C)cc(OC(=O)/C=C/C(=O)Oc2cc(C)cc(C)c2)c1
survivor count [6]: 10 of 10 | survivor count [2]: 10 of 10
